# Measured values taken from patent US10392649B2, “Biosensors that detect NAD+” (Oregon Health & Science University, priority 2014, dated 2019).
# System: HEK293T cells
# Experiment: Free NAD+ in non-permeabilized HEK293T cells interpolated from sensor calibration
# Type: cell-based
smiles,measurement,setting,value
"NC(=O)c1ccc[n+]([C@@H]2O[C@H](COP(=O)([O-])OP(=O)(O)OC[C@H]3O[C@@H](n4cnc5c(N)ncnc54)[C@H](O)[C@@H]3O)[C@@H](O)[C@H]2O)c1 [NAD+, nicotinamide adenine dinucleotide]","free NAD+ value, cytoplasm",cytoplasmic sensor 488/405 nm relative to cpVenus,105.8 µM
same,free nuclear NAD+ level,nuclear sensor,108.8 µM
